We go through six compounds from the supplement of paper PMC12823440, “Inhibitors supercharge kinase turnover through native proteolytic circuits” (Nature, 2025).

Amino acid sequences for entries named in this document (tags omitted). A change or cut given only in a name is not applied to a line headed by its entry.
UniProt P07949, whole entry, looked up: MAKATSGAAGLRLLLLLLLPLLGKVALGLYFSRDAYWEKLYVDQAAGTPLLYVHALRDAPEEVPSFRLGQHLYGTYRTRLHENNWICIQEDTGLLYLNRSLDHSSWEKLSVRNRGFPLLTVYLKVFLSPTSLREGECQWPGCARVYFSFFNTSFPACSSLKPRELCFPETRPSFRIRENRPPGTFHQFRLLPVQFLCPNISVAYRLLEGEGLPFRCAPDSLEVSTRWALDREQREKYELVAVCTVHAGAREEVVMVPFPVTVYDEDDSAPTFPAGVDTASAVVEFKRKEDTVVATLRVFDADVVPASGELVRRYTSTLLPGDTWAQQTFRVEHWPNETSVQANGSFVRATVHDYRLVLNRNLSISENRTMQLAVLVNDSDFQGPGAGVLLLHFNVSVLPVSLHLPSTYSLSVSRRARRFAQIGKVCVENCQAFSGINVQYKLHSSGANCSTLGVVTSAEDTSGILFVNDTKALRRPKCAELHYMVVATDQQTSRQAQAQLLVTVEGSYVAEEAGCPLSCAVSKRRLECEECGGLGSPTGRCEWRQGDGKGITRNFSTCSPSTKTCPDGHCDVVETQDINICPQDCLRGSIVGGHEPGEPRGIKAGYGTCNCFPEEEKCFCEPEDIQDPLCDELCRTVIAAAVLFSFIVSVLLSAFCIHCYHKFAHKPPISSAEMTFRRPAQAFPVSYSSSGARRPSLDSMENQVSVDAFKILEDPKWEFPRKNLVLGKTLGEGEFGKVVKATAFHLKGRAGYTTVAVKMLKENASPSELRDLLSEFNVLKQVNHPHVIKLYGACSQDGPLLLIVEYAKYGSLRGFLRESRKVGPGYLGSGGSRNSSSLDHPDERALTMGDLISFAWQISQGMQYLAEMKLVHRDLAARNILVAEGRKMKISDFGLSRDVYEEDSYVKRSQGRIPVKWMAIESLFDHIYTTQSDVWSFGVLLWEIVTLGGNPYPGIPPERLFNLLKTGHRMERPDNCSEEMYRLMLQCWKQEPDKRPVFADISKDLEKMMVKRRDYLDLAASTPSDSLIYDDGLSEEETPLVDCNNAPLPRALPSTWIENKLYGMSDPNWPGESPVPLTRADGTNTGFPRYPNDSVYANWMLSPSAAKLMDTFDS
UniProt P07949, whole entry M918T, looked up: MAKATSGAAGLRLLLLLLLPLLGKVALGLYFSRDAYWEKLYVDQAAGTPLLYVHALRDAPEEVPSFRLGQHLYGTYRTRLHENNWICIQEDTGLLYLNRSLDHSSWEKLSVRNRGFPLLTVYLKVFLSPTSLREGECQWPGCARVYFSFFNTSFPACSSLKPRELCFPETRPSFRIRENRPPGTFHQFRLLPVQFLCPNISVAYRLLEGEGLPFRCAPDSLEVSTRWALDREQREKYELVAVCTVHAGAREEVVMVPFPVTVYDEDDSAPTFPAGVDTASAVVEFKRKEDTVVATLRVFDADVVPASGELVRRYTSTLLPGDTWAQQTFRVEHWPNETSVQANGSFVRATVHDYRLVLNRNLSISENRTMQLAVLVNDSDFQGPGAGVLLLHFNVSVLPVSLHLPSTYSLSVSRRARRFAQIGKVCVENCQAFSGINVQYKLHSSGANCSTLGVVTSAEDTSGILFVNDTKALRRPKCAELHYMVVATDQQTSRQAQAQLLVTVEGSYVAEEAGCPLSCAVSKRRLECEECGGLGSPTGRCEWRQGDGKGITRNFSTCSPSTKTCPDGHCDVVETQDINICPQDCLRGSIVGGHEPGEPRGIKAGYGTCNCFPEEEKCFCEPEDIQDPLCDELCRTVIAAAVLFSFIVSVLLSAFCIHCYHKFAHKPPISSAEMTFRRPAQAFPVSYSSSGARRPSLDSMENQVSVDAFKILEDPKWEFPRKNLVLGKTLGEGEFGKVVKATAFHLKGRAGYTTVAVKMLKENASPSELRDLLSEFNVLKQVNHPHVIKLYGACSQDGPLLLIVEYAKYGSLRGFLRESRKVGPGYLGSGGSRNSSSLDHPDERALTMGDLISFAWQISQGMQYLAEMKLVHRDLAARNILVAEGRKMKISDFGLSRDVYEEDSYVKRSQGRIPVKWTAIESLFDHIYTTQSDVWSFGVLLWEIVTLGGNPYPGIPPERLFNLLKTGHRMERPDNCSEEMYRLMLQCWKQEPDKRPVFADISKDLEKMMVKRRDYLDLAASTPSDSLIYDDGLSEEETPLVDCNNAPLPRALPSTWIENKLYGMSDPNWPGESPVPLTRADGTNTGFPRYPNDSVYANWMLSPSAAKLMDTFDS
UniProt Q13546: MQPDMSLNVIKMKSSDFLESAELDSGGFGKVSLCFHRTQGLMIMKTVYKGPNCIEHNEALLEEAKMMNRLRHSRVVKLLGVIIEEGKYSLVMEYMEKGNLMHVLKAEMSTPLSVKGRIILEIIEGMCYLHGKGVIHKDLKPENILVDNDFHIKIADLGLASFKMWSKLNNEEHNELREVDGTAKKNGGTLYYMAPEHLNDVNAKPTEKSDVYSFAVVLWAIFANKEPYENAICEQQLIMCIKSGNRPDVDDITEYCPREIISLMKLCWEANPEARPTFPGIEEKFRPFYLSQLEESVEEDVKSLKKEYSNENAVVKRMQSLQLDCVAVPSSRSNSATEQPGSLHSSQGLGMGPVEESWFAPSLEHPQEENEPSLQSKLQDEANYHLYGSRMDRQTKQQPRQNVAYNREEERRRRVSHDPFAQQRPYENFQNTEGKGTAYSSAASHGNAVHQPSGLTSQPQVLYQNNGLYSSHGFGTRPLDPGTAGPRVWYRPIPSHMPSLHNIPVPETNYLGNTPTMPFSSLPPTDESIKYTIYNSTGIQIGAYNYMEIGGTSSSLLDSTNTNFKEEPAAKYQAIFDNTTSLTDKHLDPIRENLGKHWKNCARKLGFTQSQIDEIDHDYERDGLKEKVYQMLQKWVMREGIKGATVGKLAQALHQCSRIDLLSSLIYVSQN
UniProt Q01974, whole entry: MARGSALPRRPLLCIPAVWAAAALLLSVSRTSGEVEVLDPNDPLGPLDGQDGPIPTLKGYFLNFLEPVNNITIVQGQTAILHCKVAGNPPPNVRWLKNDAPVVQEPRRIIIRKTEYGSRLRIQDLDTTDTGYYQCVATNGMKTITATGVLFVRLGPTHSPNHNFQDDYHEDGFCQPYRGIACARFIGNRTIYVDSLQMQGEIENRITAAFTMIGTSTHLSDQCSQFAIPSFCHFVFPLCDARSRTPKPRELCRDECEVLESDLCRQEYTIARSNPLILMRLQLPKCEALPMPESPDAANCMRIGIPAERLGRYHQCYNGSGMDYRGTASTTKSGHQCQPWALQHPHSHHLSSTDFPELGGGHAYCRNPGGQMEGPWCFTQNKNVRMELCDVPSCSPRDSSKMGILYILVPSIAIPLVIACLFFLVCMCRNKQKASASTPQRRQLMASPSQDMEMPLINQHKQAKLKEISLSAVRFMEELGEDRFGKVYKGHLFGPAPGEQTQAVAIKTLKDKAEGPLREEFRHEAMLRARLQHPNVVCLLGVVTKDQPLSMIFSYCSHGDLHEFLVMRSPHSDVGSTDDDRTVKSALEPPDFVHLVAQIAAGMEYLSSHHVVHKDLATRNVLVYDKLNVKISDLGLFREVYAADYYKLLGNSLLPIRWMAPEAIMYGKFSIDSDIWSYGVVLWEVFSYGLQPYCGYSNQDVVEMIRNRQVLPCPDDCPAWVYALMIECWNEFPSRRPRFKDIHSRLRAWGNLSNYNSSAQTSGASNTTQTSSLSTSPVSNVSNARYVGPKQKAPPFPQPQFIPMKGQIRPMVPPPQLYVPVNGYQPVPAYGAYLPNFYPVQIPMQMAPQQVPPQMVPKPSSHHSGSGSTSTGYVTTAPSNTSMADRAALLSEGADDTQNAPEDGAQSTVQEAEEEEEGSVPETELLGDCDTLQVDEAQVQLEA
UniProt Q9NYA1, whole entry: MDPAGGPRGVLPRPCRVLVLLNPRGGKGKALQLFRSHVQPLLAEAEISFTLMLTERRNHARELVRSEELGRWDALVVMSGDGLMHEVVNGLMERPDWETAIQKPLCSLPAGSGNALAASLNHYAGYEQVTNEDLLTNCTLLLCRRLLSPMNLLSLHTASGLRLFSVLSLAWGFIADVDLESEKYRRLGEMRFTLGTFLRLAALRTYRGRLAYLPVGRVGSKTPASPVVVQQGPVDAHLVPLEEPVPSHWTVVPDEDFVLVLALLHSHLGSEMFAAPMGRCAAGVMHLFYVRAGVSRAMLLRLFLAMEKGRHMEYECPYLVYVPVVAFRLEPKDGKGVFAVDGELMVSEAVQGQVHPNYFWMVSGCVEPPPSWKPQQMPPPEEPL
UniProt Q9Y6E0: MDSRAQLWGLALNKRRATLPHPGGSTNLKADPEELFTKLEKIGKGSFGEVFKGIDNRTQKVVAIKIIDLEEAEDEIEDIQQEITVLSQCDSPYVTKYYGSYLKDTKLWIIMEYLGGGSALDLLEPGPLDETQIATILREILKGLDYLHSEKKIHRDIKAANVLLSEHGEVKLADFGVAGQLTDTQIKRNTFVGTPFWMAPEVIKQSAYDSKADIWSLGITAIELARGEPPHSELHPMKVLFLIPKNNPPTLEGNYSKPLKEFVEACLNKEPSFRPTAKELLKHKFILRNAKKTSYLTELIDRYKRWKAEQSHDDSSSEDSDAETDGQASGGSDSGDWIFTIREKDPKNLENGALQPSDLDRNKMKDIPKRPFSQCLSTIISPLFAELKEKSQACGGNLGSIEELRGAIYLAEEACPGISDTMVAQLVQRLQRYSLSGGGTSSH
UniProt P29597: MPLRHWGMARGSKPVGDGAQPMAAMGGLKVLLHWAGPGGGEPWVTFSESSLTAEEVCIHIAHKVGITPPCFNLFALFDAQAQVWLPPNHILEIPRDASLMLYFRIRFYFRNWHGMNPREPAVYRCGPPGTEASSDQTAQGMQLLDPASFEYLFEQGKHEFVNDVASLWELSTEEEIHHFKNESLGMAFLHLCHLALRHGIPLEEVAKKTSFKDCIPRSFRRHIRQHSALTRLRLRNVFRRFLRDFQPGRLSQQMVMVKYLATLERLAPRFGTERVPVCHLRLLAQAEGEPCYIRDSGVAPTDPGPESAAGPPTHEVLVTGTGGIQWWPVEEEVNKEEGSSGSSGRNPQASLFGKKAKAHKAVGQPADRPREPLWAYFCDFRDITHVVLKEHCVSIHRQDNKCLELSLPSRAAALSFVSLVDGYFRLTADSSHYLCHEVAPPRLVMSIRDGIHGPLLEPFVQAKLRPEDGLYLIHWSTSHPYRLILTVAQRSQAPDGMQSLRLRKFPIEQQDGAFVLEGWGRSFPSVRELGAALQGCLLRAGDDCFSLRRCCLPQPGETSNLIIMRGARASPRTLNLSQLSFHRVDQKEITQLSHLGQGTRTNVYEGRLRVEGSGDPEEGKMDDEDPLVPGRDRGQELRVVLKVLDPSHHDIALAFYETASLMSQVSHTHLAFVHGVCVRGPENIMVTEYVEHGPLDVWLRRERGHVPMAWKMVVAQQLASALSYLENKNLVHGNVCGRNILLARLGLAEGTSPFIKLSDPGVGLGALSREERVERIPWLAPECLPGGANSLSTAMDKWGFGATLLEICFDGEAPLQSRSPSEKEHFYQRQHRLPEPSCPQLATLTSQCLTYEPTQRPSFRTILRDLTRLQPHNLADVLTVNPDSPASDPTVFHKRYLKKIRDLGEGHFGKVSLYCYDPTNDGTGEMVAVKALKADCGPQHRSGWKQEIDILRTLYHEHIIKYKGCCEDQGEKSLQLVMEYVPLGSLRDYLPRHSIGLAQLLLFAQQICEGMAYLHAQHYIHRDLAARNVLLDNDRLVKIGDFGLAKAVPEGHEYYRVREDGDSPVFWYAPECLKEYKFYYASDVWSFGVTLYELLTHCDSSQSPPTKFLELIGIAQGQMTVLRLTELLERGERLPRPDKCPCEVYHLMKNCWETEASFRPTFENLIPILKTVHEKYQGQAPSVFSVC
UniProt P43403: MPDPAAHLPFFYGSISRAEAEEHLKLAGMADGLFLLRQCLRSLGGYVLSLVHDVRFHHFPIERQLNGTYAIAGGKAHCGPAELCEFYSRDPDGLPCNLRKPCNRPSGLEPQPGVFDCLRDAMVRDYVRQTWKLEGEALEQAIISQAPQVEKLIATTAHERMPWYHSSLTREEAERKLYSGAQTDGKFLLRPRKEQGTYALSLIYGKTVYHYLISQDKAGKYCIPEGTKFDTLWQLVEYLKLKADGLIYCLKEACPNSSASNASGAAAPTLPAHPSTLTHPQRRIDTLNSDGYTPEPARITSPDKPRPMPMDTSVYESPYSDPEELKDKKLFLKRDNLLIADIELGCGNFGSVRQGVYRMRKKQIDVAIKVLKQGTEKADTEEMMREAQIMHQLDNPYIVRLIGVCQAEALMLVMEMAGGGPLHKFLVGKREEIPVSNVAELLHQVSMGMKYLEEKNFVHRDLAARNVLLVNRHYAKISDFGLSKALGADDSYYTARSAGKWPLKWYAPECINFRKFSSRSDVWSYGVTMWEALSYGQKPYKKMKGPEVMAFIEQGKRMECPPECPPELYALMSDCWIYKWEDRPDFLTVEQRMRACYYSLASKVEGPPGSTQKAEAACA

Counter-ions that a name gives are not always drawn. This is one part of the list. Hit calls seldom repeat between salt and free forms of one compound.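 Kinases, fused to nanoluciferase, were expressed in K562 cells; luminescence was measured every 4 h from 2 to 18 h as percent of control (DMSO = 100%, positive control = 0%). A time point is decreased if signal falls significantly (2 sigma). Hits were called by the authors by a rule that is not shown; the count of time points alone does not decide it.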

Conditions in all cases: K562, 2-18 h
One assay has as its target RET (UniProt P07949). Nature of the assay: kinase-Nluc reporter destabilization hit call (1 = scored as downregulated) (binary); higher = compound decreases kinase abundance.
The target of assay [1] is RET_M918T (clone: RET_mut) (UniProt P07949). The description is as above.
A further assay has as its target RIOK1 (UniProt Q9BRS2). The description is as above.
For a further assay, the target named is RIPK1 (UniProt Q13546). Described as above.
The target of a further assay is RIPK2 (UniProt O43353). The description is as above.
Another assay deals with ROR2 (UniProt Q01974). The assay is described as above.
The next assay addresses RPS6KA1 (UniProt Q15418). Described as above.
In another assay the target is SPHK1 (UniProt Q9NYA1). Described as above.
Another assay concerns the target SRC (UniProt P12931). The description is as above.
Another assay has as its target STK24 (UniProt Q9Y6E0). The description is as above.
A further assay addresses STK38 (UniProt Q15208). Described as above.
The next assay concerns the target TEC (UniProt P42680). The description is as above.
The target in a further assay is TYK2 (UniProt P29597). Described as above.
In another assay the target is ULK3 (UniProt Q6PHR2). The assay is described as above.
The target in a further assay is YES1 (UniProt P07947). The assay is described as above.
Another assay concerns the target ZAK (UniProt Q9NYL2). Described as above.
The next assay deals with ZAP70 (UniProt P43403). Described as above.
For a further assay, the target named is CDK4 (UniProt P11802). In words: number of time points (of 4; 2 h point missing) at which kinase-Nluc abundance scored as decreased, DMSO-normalised (count); higher = more persistent destabilization.
For the next assay, the target named is CDK7 (UniProt P50613). Described as above.
In the next assay the target is SYK (UniProt P43405). In words: kinase-Nluc reporter destabilization hit call (1 = scored as downregulated) (binary); higher = compound decreases kinase abundance.

For the compound `CC[C@@H]1C(=O)N(C)c2cnc(Nc3ccc(C(=O)NC4CCN(C)CC4)cc3OC)nc2N1C1CCCC1`, the “kinase-Nluc reporter destabilization hit call” value (in the assay with RET (10 µM); in [1] (10 µM); in the assay with RIOK1 (10 µM); with RIPK1 (10 µM); with RIPK2 (10 µM); with ROR2 (10 µM)) was inactive: 0 throughout. For the same compound, the “kinase-Nluc reporter destabilization hit call” value with RPS6KA1 (10 µM), with SPHK1 (10 µM), in the assay with SRC (10 µM), with STK24 (10 µM), with STK38 (10 µM) and with TEC (10 µM) was inactive: 0 each time. Also, the “kinase-Nluc reporter destabilization hit call” value in the assay with TYK2 (10 µM), with ULK3 (10 µM), with YES1 (10 µM), in the assay with ZAK (10 µM) and in the assay with ZAP70 (10 µM) was inactive: 0 in each case. Besides, the “number of time points” value with CDK4 (10 µM) and with CDK7 (10 µM) was 0 throughout.

Consider `Cc1cnc(Nc2ccc(OCCN3CCCC3)cc2)nc1Nc1cccc(S(=O)(=O)NC(C)(C)C)c1` [Fedratinib (hydrochloride hydrate)], for which the “kinase-Nluc reporter destabilization hit call” value (with RET (2.5 µM); in assay [1] (2.5 µM); with RIOK1 (2.5 µM); with RIPK1 (2.5 µM); with RIPK2 (2.5 µM); with ROR2 (2.5 µM)) was inactive: 0 throughout. Also, the “kinase-Nluc reporter destabilization hit call” value in the assay with RPS6KA1 (2.5 µM), with SPHK1 (2.5 µM), in the assay with SRC (2.5 µM), in the assay with STK24 (2.5 µM), with STK38 (2.5 µM) and with SYK (2.5 µM) was inactive: 0 each time. Besides, the “kinase-Nluc reporter destabilization hit call” value in the assay with TEC (2.5 µM), in the assay with TYK2 (2.5 µM), in the assay with ULK3 (2.5 µM), with YES1 (2.5 µM), with ZAK (2.5 µM) and with ZAP70 (2.5 µM) was inactive: 0 in each case. Further, the “number of time points” value in the assay with CDK4 (2.5 µM) and with CDK7 (2.5 µM) was 0 in each case.

As for `Cc1nc(Nc2ncc(C(=O)Nc3c(C)cccc3Cl)s2)cc(N2CCN(CCO)CC2)n1` [Dasatinib], the “kinase-Nluc reporter destabilization hit call” value (in the assay with RET (2.5 µM); in [1] (2.5 µM); in the assay with RIOK1 (2.5 µM); in the assay with RIPK1 (2.5 µM); with RIPK2 (2.5 µM); in the assay with ROR2 (2.5 µM)) was inactive: 0 each time. Also, the “kinase-Nluc reporter destabilization hit call” value with RPS6KA1 (2.5 µM), with SPHK1 (2.5 µM), with STK24 (2.5 µM), with STK38 (2.5 µM), in the assay with SYK (2.5 µM) and with TEC (2.5 µM) was inactive: 0 each time. Besides, the “kinase-Nluc reporter destabilization hit call” value with TYK2 (2.5 µM), with ULK3 (2.5 µM), in the assay with YES1 (2.5 µM), with ZAK (2.5 µM) and with ZAP70 (2.5 µM) was inactive: 0 throughout. The “number of time points” value was 0 in the assay with CDK4 (2.5 µM) and 2 with CDK7 (2.5 µM).

In the case of `Cc1cc2ncnn2cc1Nc1ncc2c(n1)n(C1CCOCC1)c(=O)n2C`, the “kinase-Nluc reporter destabilization hit call” value in the assay with RIOK1 (10 µM), with RIPK1 (10 µM), with RIPK2 (10 µM), with ROR2 (10 µM), with RPS6KA1 (10 µM) and with SPHK1 (10 µM) was inactive: 0 in each case. The “kinase-Nluc reporter destabilization hit call” value with SRC (10 µM), with STK24 (10 µM), with TEC (10 µM), in the assay with TYK2 (10 µM), with ULK3 (10 µM) and in the assay with YES1 (10 µM) was inactive: 0 throughout. Moreover, the “kinase-Nluc reporter destabilization hit call” value in the assay with ZAK (10 µM) and in the assay with ZAP70 (10 µM) was inactive: 0 each time. Also, the “number of time points” value in the assay with CDK4 (10 µM) and in the assay with CDK7 (10 µM) was 0 throughout.

Take `Cc1cc(Nc2cc(N3CCN(C)CC3)nc(/C=C/c3ccccc3)n2)n[nH]1` [ENMD-2076 (Tartrate)]: the “kinase-Nluc reporter destabilization hit call” value (in the assay with RET (2.5 µM); in [1] (2.5 µM); with RIOK1 (2.5 µM); with RIPK1 (2.5 µM); with RIPK2 (2.5 µM); in the assay with ROR2 (2.5 µM)) was inactive: 0 in each case. Besides, the “kinase-Nluc reporter destabilization hit call” value in the assay with RPS6KA1 (2.5 µM), with SPHK1 (2.5 µM), with SRC (2.5 µM), with STK24 (2.5 µM), with STK38 (2.5 µM) and in the assay with TEC (2.5 µM) was inactive: 0 throughout. For the same compound, the “kinase-Nluc reporter destabilization hit call” value with TYK2 (2.5 µM), in the assay with ULK3 (2.5 µM), in the assay with YES1 (2.5 µM), with ZAK (2.5 µM) and in the assay with ZAP70 (2.5 µM) was inactive: 0 throughout. In addition, the “number of time points” value in the assay with CDK4 (2.5 µM) and with CDK7 (2.5 µM) was 0 each time.

With `Cn1cc(/C=C2\C(=O)Nc3cccnc32)c2ccccc21`, the “kinase-Nluc reporter destabilization hit call” value with RIOK1 (10 µM), with ROR2 (10 µM), in the assay with RPS6KA1 (10 µM), with SPHK1 (10 µM), with SRC (10 µM) and with STK24 (10 µM) was inactive: 0 throughout. The “kinase-Nluc reporter destabilization hit call” value in the assay with STK38 (10 µM), with SYK (10 µM), with TEC (10 µM), with TYK2 (10 µM), with ULK3 (10 µM) and with YES1 (10 µM) was inactive: 0 throughout. Also, the “number of time points” value with CDK4 (10 µM) and in the assay with CDK7 (10 µM) was 0 throughout.
